# Assay results taken from PubChem BioAssay AID1347075 (National Center for Advancing Translational Sciences (NCATS), 2019).
# Out of some 400,000 compounds screened, about 5,500 (1.4%) were called active. Inconclusive means that the source gave no clear call. Such entries were picked first, then a sample of the others. Calls come from the whole dose curve; as a rule, active = well fitted cell-killing curve with a large enough effect; inconclusive = small, poorly fitted or top-dose-only effect, or effect the other way; inactive = flat fitted curve, though single readings scatter. Potencies beside an inconclusive call are fits to weak or partial responses and may not hold up.
# Experiment: qHTS assay for MDR1-selective chemotherapeutics: Primary screen using the parental adenocarcinoma cell KB-3-1; note: nearly all actives have a fitted effect of over 60% in size
# Conditions: KB-3-1 viability, CellTiter-Glo ATP luminescence, 72 h; activity change, negative = cytotoxic: at 46.1 µM (top of the series)
# Procedure, shortened: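 Parental KB-3-1 viability, qHTS format: 72 h compound exposure, 37 °C; CellTiter-Glo; media-only wells and DMSO plates as controls; concentration-effect fits on corrected data.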
# % is set by controls: 0 for no effect and ±100 for the full control effect; potency is the fitted concentration of half-maximal effect.
Structure (SMILES),Potency,"activity change, negative = cytotoxic"
CC1(C(=O)NCCC#N)CCN1C(=O)Cc1ccc(-c2ccccc2)cc1 (centres undefined),"inconclusive: 18.4 µM [cytotoxic, single point]",–
CS(=O)(=O)N(CC(=O)Nc1ccccc1C(=O)NCc1ccco1)c1ccc2c(c1)OCCO2,"inconclusive: 29.1 µM [cytotoxic, single point]",–
Cc1sc2nc(CSc3ccccc3)nc(N3CCN(C)CC3)c2c1C,"inconclusive: 25.9 µM [cytotoxic, single point]",–
Cc1ccc(NC(=O)Cc2nc(COC(=O)Cc3cccc(C(F)(F)F)c3)cs2)cc1,–,inactive: 25%
COCCN(C(=O)C1CC(=O)N(Cc2ccccc2)C1)c1nc(-c2ccc([N+](=O)[O-])cc2)cs1 (centres undefined),"inconclusive: 32.6 µM [cytotoxic, single point]",–
O=c1oc2ccccc2nc1/C=C(\O)c1ccccc1,–,inactive: 1.29%
CC(Oc1ccccc1)C(=O)Nc1ccc(OCc2cc(=O)n3ccsc3n2)cc1 (centres undefined),–,inactive: -4.5%
CCCCCc1ccc(OCCCC[n+]2ccccc2)c(CCCCC)c1,"inconclusive: 11.6 µM [cytotoxic, partial curve, poor fit]",–
CCNC(=O)c1cc2c(c(-c3cccc(-c4ccccc4F)c3)n1)[C@H](CCO)N(C(=O)CC)C2,"inconclusive: 16.4 µM [cytotoxic, single point]",–
Cc1ccc(S(=O)(=O)c2cn(CC(=O)Nc3ccccc3C)c3cc4c(cc3c2=O)OCO4)cc1,"inconclusive: 29.1 µM [rising, single point]",–
Cc1nnc(SC(C)C(=O)Nc2ccc(N3CCOCC3)cc2)n1Cc1ccccc1 (centres undefined),–,inactive: -2.72%
CCOc1ccc(CC(=O)Nc2c(C(=O)Nc3ccc(OC)cc3OC)oc3ccccc23)cc1,–,inactive: 4.54%
CC(C)N1CCN(CC2COc3ccccc3O2)CC1 (centres undefined),–,inactive: -1.54%
Cc1cc(=O)n(C)c(=O)n1CCCCOc1ccc([N+](=O)[O-])cc1,"inconclusive: 20.6 µM [cytotoxic, partial curve, poor fit]",–
Cc1ccc(S(=O)(=O)N2CCOCC2)cc1NC(=O)COc1ccc(C(=O)c2ccccc2)cc1,"inconclusive: 16.4 µM [cytotoxic, single point]",–
S=C(NCCC(c1ccccc1)c1ccccc1)Nc1ccccc1Cl,–,inactive: 0.387%
O=C(NCc1ccncc1)[C@@H]1CCCN1C(=O)[C@@H]1CCCN1C(=O)c1c(F)cccc1F,–,inactive: 11.4%
CC(=O)N/N=C(\C)C1COc2ccccc2O1 (centres undefined),"inconclusive: 29.1 µM [cytotoxic, single point]",–
O=C(Nc1cccc(S(=O)(=O)NC2=NCCCCC2)c1)c1ccc(Cl)cc1,"inconclusive: 18.4 µM [cytotoxic, single point]",–

# In the list so far, these contain a Cl atom.
Structure (SMILES),Potency,"activity change, negative = cytotoxic"
S=C(NCCC(c1ccccc1)c1ccccc1)Nc1ccccc1Cl,–,inactive: 0.387%
O=C(Nc1cccc(S(=O)(=O)NC2=NCCCCC2)c1)c1ccc(Cl)cc1,"inconclusive: 18.4 µM [cytotoxic, single point]",–
